Where a chain is given by its changes, count along the chain named. Numbers in names are those of the source. Results are given in words; binding and its absence hold for the method and conditions named. Some binding calls cover weakened binding; strength is not graded here. Where no end group is shown, it is not given here. TMR = tetramethyl rhodamine dye

To fix the notation:
B1: Rb^P E554K (domain or fragment, UniProt P06400 380-788)
chain: NTIQQLMMILNSASDQPSENLISYFNNCTVNPKESILKRVKDIGYIFKEKFAKAVGQGCVEIGSQRYKLGVRLYYRVMESMLKSEEERLSIQNFSKLLNDNIFHMSLLACALEVVMATYSRSTSQNLDSGTDLSFPWILNVLNLKAFDFYKVIESFIKAEGNLTREMIKHLERCKHRIMESLAWLSDSPLFDLIKQSKDREGPTDHLESACPLNLPLQNNHTAADMYLSPVRSPKKKGSTTRVNSTANAETQATSAFQTQKPLKSTSLSLFYKKVYRLAYLRLNTLCERLLSEHPELEHIIWTLFQHTLQNEYELMRDRHLDQIMMCSMYGICKVKNIDLKFKIIVTAYKDLPHAVQETFKRVLIKEEEYDSIIVFYNSVFMQRLKTNILQYASTRPPTLSPIPHIPRS
B2: Rb^P M704V (domain or fragment, UniProt P06400 380-788)
chain: B1 chain with K175E, M325V
B3: Rb^P S751Y (domain or fragment, UniProt P06400 380-788)
chain: B1 chain with K175E, S372Y
B4: Rb^P A488V (domain or fragment, UniProt P06400 380-788)
chain: B1 chain with A109V, K175E
B5: Rb^P T738I (domain or fragment, UniProt P06400 380-788)
chain: B1 chain with K175E, T359I
B6: Rb^P D697E (domain or fragment, UniProt P06400 380-788)
chain: B1 chain with K175E, D318E
B7: Rb^P A490V (domain or fragment, UniProt P06400 380-788)
chain: B1 chain with A111V, K175E
B8: Rb^P K462E (domain or fragment, UniProt P06400 380-788)
chain: B1 chain with K83E, K175E
B9: Rb^P A490S (domain or fragment, UniProt P06400 380-788)
chain: B1 chain with A111S, K175E
B10: Rb^P A490T (domain or fragment, UniProt P06400 380-788)
chain: B1 chain with A111T, K175E
B11: Rb^P R763T (domain or fragment, UniProt P06400 380-788)
chain: B1 chain with K175E, R384T
B12: Rb^P M695I (domain or fragment, UniProt P06400 380-788)
chain: B1 chain with K175E, M316I
B13: Rb^P E539D (domain or fragment, UniProt P06400 380-788)
chain: B1 chain with E160D, K175E
B14: Rb^P R741S (domain or fragment, UniProt P06400 380-788)
chain: B1 chain with K175E, R362S
B15: Rb^P E492Q (domain or fragment, UniProt P06400 380-788)
chain: B1 chain with E113Q, K175E
B16: Rb^P R741C (domain or fragment, UniProt P06400 380-788)
chain: B1 chain with K175E, R362C
B17: Rb^P A525G (domain or fragment, UniProt P06400 380-788)
chain: B1 chain with A146G, K175E
B18: Rb^P L550I (domain or fragment, UniProt P06400 380-788)
chain: B1 chain with L171I, K175E
B19: Rb^P I703V (domain or fragment, UniProt P06400 380-788)
chain: B1 chain with K175E, I324V
B20: Rb^P E533K (domain or fragment)
chain: B1 chain with E154K, K175E

The first assay addresses TMR-E2F1^TD (peptide of the E2F1 transactivation domain, N-labeled with tetramethyl rhodamine). Briefly: fluorescence polarisation. (Polarisation of emitted light reports the rotation of a fluorescent probe.)
For the molecule B1, the binding entry was “binds”. With B2, the binding entry is “binds”. For B3, the binding result was “binds”.

For the next assay the target is unchanged. Briefly: fluorescence polarisation. This is another data set of the same source.
B4: the binding result was “binds”. On to B1, for which the binding entry is recorded as “binds”. On to B5, for which the binding result was “binds”. On the same count and under the same terms, the entry for B6 is “binds”; for B7 it is “binds”. For the molecule B8, the binding result is recorded as “binds”. On the same count and under the same terms, under B9 stands “binds”. The same measure, in the same setting: the entry for B10 is “binds”. For the molecule B2, the binding entry is on record as “binds”. Regarding B11, the binding entry was “binds”.

B12: the binding result is given as “binds”. With B13, the binding result is “binds”.

For the molecule B14, the binding entry is listed as “binds”. Still for that read-out and setting: under B15 stands “binds”; under B3, “binds”; under B16, “binds”. Consider B17, for which the binding result was “binds”. Same read-out and setting: under B18 stands “binds”. Still for that read-out and setting: under B19 stands “binds”. On the same count and under the same terms, under B20 stands “binds”.

Source of the values: paper doi:10.1101/2024.09.22.614354 (bioRxiv, 2024).
